These are yes or no findings as the source states them, for the method shown. Some entries that bind do so weakly or less than the wild type.
T1: P2 (Vigna radiata)
T1 sequence: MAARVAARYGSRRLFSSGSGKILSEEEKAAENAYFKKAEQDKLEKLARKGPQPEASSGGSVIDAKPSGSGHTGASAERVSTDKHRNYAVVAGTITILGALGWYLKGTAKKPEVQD

T2: NDUX1 (Vigna radiata)
T2 sequence: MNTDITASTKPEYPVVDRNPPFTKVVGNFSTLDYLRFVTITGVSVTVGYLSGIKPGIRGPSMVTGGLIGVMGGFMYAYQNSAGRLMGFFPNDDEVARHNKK

B1: CA1 (natural protein, Vigna radiata, UniProt A0A1S3VT00 1-270, looked up)
chain: MGTLGRAFYAVGFWIRETGQAIDRLGSRLQGNYLFQEQLSRHRPLMNLFDKYPSVHKDAFVAPSASLLGDVHVGPASSIWYGCVLRGDVNGIVIGSGTNIQDNSLVHVAKSNLTGKVLPTIIGDNVTVGHSAVLQGCTVEDEAFIGMGATLLDGVYVEKHAMVAAGALVRQNTRIPYGEVWGGNPAKFLRKLTEDEMAFFSQSALNYSNLAQAHAAENAKELEETEFVKVLHKKFAPRGEEYDSILDGGQETPAKLNLQDNVLLDKAPKA
notes: CA1, gamma-carbonic-anhydrase domain subunit of Vigna radiata mitochondrial complex I; 270 residues; residues 3-222 modelled, 223-233 as poly-Ala; also called carbonic-anhydrase-1 subunit; Gamma-CA 1 (A. thaliana name)
B2: P2 (protein, UniProt A0A1S3TGE7 1-115)
chain: T1 sequence

Assays:
P2 (Vigna radiata) = biological target: T1, P2 (Vigna radiata); assay: cryo-EM structure; CI* (~800 kDa assembly intermediate) from V. radiata mitochondrial membranes, digitonin-extracted, amphipol A8-35-stabilised, sucrose gradient; 6 mg/ml in 20 mM HEPES, 150 mM NaCl, 1 mM EDTA, 0.1% digitonin, pH 7.8; nominal resolution 3.9 Å; interfaces of the γCA domain listed from the model with PDBePISA; both purified
NDUX1 (Vigna radiata) = biological target: T2, NDUX1 (Vigna radiata); assay: as above

Row | Binder | binding (P2 (Vigna radiata)) | binding (NDUX1 (Vigna radiata))
1 | B1 | binds | –
2 | B2 | – | binds
